# Reference: the supplement of paper PMC9135407
# “And” between values parts separate entries of the source, which are not always exact repeats. Equal values may be shown once. Where a name gives a salt, the structure may show the parent alone. ± gives the standard deviation of the averaged measurements. This is one part of the list. Plates or batches differ in their baseline, so values are only roughly comparable.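 Primary human stellate myofibroblasts activated in culture; inactivation shown by regained lipid droplets. Readout: fraction of Hoechst-counted cells exceeding a per-plate Bodipy threshold, duplicate wells, each plate with DMSO negative and nortriptyline positive controls. Hits: control-normalized score beyond the plate's top-tenth-percentile nortriptyline wells, or among its three best wells. Final well concentrations unstated.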
# System: primary human hepatic stellate cells (donor 1)
# Experiment: percent Bodipy-positive cells; higher = more lipid droplet accumulation
# Conditions: 48 h
# [1] = library stock concentration: 10 mM
# [2] = library stock concentration: 3.33 mM
# [3] = library stock concentration: 1 mM
# [4] = library stock concentration: 7.7 mM
# [5] = library stock concentration: 400 uM
# [6] = library stock concentration: 80 uM
# [7] = library stock concentration: 2 mM
smiles,measurement,setting,value
CCCNCC(O)COc1ccccc1C(=O)CCc1ccccc1.Cl (stereo unspecified) [Propafenone hydrochloride],percent Bodipy-positive cells,[1],84.9 ± 1.9%
C=C(c1ccc(C(=O)O)cc1)c1cc2c(cc1C)C(C)(C)CCC2(C)C [Bexarotene],percent Bodipy-positive cells,[2],11.5 ± 7.9%
same,percent Bodipy-positive cells,library stock concentration: 5.7 mM,10.2 ± 1.7%
same,percent Bodipy-positive cells,[1],13.9 ± 4.3%
CN(C)CCCCC(=O)Nc1ccc(NC(=S)NC(=O)c2ccc(C(C)(C)C)cc2)cc1 [Tenovin-6],percent Bodipy-positive cells,[3],41.5 ± 3.7%
same,percent Bodipy-positive cells,[1],97.73 ± 0.67%
CC(C(=O)O)c1ccc(C(=O)c2cccs2)cc1 (stereo unspecified) [Suprofen],percent Bodipy-positive cells,,8.42 ± 4.6%
same,percent Bodipy-positive cells,[2],10.3 ± 4.3%
same,percent Bodipy-positive cells,[4],22.5 ± 0.34%
same,percent Bodipy-positive cells,[1],27.5% and 33.8%
"COc1cc2ncnc(Nc3ccc(F)c(Cl)c3)c2cc1OCCCN1CCOCC1 [Gefitinib (ZD1839, Iressa) (0.4 mM)]",percent Bodipy-positive cells,[5],38.3 ± 5.4%
COc1cc2ncnc(Nc3ccc(F)c(Cl)c3)c2cc1OCCCN1CCOCC1,percent Bodipy-positive cells,[6],18.4 ± 3.9%
same,percent Bodipy-positive cells,[5],29.1 ± 22%
same,percent Bodipy-positive cells,[7],35.3 ± 6.6%
same,percent Bodipy-positive cells,[1],74.3 ± 12%
COc1cc2ncnc(Nc3ccc(F)c(Cl)c3)c2cc1OCCCN1CCOCC1 [Gefitinib],percent Bodipy-positive cells,library stock concentration: 4.5 mM,35.9 ± 11%
COc1cc2ncnc(Nc3ccc(F)c(Cl)c3)c2cc1OCCCN1CCOCC1 [Gefitinib (ZD1839)],percent Bodipy-positive cells,[2],38.3 ± 0.47%
CN1CCN(c2nc(C3=C(c4c[nH]c5ccccc45)C(=O)NC3=O)c3ccccc3n2)CC1 [Sotrastaurin],percent Bodipy-positive cells,[6],9.13 ± 0.95%
same,percent Bodipy-positive cells,[5],17 ± 7.2%
same,percent Bodipy-positive cells,[7],7.19 ± 2.2%
same,percent Bodipy-positive cells,[2],5.61 ± 0.17%
"O=C1C(=Cc2ccc(O)cc2)C2=Nc3ccccc3C2=C1C1=C2C(=Nc3ccccc32)C(=Cc2ccc(O)cc2)C1=O [Scytonemin, Lyngbya sp.]",percent Bodipy-positive cells,[2],20.5 ± 2.8%
CN1CCC[C@@H]1CCO[C@](C)(c1ccccc1)c1ccc(Cl)cc1 [Clemastine Fumarate],percent Bodipy-positive cells,[2],42.1 ± 12%
same,percent Bodipy-positive cells,[1],91.01 ± 0.68%
CN1CCC[C@@H]1CCO[C@](C)(c1ccccc1)c1ccc(Cl)cc1 [Clemastine fumarate],percent Bodipy-positive cells,,64.8 ± 0.86%
CN1CCC[C@@H]1CCO[C@](C)(c1ccccc1)c1ccc(Cl)cc1 [Clemastine],percent Bodipy-positive cells,[1],43.4 ± 0.71%
CCOc1ccc(NC(C)=O)cc1 [Phenacetin],percent Bodipy-positive cells,,56.7 ± 7.8%
same,percent Bodipy-positive cells,[2],10.2 ± 4%
same,percent Bodipy-positive cells,[1],15.6% and 21.4%
O=C(c1ccc(OCCCc2c[nH]cn2)cc1)C1CC1 [Ciproxifan],percent Bodipy-positive cells,[2],15.1 ± 2.7%
same,percent Bodipy-positive cells,[1],54.2 ± 21%
O=C(c1ccc(OCCCc2c[nH]cn2)cc1)C1CC1 [Ciproxifan hydrochloride],percent Bodipy-positive cells,[1],78.5 ± 17%
C=C1C[C@@H](O)[C@H](/C=C/[C@@H](O)CCCCC)[C@H]1C/C=C\CCCC(=O)O [9-deoxy-9-methylene Prostaglandin E2],percent Bodipy-positive cells,[3],24.9 ± 9.4%
CC(C)[C@H](N)C(=O)OCC(CO)OCn1cnc2c(=O)[nH]c(N)nc21 (stereo partly specified) [Valganciclovir HCl],percent Bodipy-positive cells,[2],12.5 ± 6.1%
same,percent Bodipy-positive cells,[1],24.5 ± 4.3%
CCN1CCC[C@H]1CNC(=O)c1c(O)c(Cl)cc(Cl)c1OC [S(+)-Raclopride L-tartrate],percent Bodipy-positive cells,[1],20.6 ± 4.7%
CCN1CCC[C@H]1CNC(=O)c1c(O)c(Cl)cc(Cl)c1OC [Raclopride],percent Bodipy-positive cells,[1],13.7% and 9.03%
O=C(O)c1ccccc1 [Benzoic Acid],percent Bodipy-positive cells,[2],9.36 ± 1.6%
same,percent Bodipy-positive cells,[1],43.9 ± 12%
O=C(O)c1ccccc1 [Benzoic acid],percent Bodipy-positive cells,library stock concentration: 16.4 mM,26.2 ± 4.9%
CN(CC[C@@H](Oc1ccc(C(F)(F)F)cc1)c1ccccc1)CC(=O)[O-].[Li+],percent Bodipy-positive cells,[1],57.3 ± 11%
CC[C@@H]([C@H](C)O)n1ncn(-c2ccc(N3CCN(c4ccc(OC[C@@H]5CO[C@@](Cn6cncn6)(c6ccc(F)cc6F)C5)cc4)CC3)cc2)c1=O [Posaconazole],percent Bodipy-positive cells,[2],24.8 ± 10%
CCCCC[C@H](O)/C=C/[C@H]1[C@H](O)CC(=O)[C@@H]1CCCCCCC(=O)O [Prostaglandin E1],percent Bodipy-positive cells,[3],15.37 ± 0.052%
same,percent Bodipy-positive cells,[1],9.28 ± 4.2%
CCCCC[C@H](O)/C=C/[C@H]1[C@H](O)CC(=O)[C@@H]1CCCCCCC(=O)O [Prostaglandin  E1],percent Bodipy-positive cells,[3],10.1 ± 6.1%
CCCCC[C@H](O)/C=C/[C@H]1[C@H](O)CC(=O)[C@@H]1CCCCCCC(=O)O [Alprostadil],percent Bodipy-positive cells,,10.7 ± 1.9%
same,percent Bodipy-positive cells,[2],16.1 ± 0.84%
same,percent Bodipy-positive cells,[1],14.3% and 8.52%
COC(=O)[C@]12CCC(C)(C)C[C@H]1[C@H]1C(=O)C=C3[C@@]4(C)C=C(C#N)C(=O)C(C)(C)[C@@H]4CC[C@@]3(C)[C@]1(C)CC2 [Bardoxolone Methyl],percent Bodipy-positive cells,[2],100%
same,percent Bodipy-positive cells,[1],100%
CC(=O)Nc1ccc(C(=O)O)cc1,percent Bodipy-positive cells,[1],36.8 ± 1.8%
O=C(O)c1cccnc1C(=O)O [Quinolinic acid],percent Bodipy-positive cells,[1],16.8% and 18.2% and 6.08%
Cc1nc2c([nH]1)c(=O)n(C)c(=O)n2Cc1ccco1 [Furafylline],percent Bodipy-positive cells,[4],8.85 ± 3.8%
same,percent Bodipy-positive cells,[1],43.6 ± 18%
C[N+](C)(CCOc1ccccc1)Cc1ccccc1.O=C([O-])c1cc2ccccc2cc1O [Bephenium hydroxynaphthoate],percent Bodipy-positive cells,,9.62 ± 1.9%
c1cc(OCCN2CCCCC2)cc(-c2n[nH]c3ccc(-c4nnc[nH]4)cc23)c1,percent Bodipy-positive cells,[6],10.4 ± 3.1%
same,percent Bodipy-positive cells,[5],8.55% and 15.6%
CC(NCCc1ccc(O)cc1)C(O)c1ccc(O)cc1 (stereo unspecified) [Ritodrine hydrochloride],percent Bodipy-positive cells,,37.4 ± 9.1%
same,percent Bodipy-positive cells,library stock concentration: 6.2 mM,20.7 ± 1.1%
same,percent Bodipy-positive cells,[1],14.5% and 24.2%
CC(NCCc1ccc(O)cc1)C(O)c1ccc(O)cc1 (stereo unspecified) [Ritodrine HCl],percent Bodipy-positive cells,[2],6.62 ± 2.5%
same,percent Bodipy-positive cells,[1],12.8 ± 1%
CCC(C)C1OC2(CCC1C)CC1CC(CC=C(C)C(OC3CC(OC)C(OC4CC(OC)C(O)C(C)O4)C(C)O3)C(C)C=CC=C3COC4C(O)C(C)=CC(C(=O)O1)C34O)O2 (stereo unspecified) [Ivermectin],percent Bodipy-positive cells,[2],7.05 ± 0.69%
same,percent Bodipy-positive cells,[1],85.2 ± 1%
CCC1(C)CC(=O)NC1=O (stereo unspecified) [Ethosuximide],percent Bodipy-positive cells,,28.6 ± 7.3%
same,percent Bodipy-positive cells,library stock concentration: 14.2 mM,16 ± 1.8%

# For convenience, some entries already given:
smiles,measurement,setting,value
O=C(O)c1ccccc1 [Benzoic Acid],percent Bodipy-positive cells,[1],43.9 ± 12%
O=C(O)c1ccccc1 [Benzoic acid],percent Bodipy-positive cells,library stock concentration: 16.4 mM,26.2 ± 4.9%
